Experimental data published in publication PMC7507479.
Results are given in words; binding and its absence hold for the method and conditions named. Binding seen in cells or lysates may run through a third protein. Some results given as binding are weak or reduced against the parent protein; the word gives no strength.

By UniProt entry, the sequences of proteins in these tests, tags left out.
UniProt P46937: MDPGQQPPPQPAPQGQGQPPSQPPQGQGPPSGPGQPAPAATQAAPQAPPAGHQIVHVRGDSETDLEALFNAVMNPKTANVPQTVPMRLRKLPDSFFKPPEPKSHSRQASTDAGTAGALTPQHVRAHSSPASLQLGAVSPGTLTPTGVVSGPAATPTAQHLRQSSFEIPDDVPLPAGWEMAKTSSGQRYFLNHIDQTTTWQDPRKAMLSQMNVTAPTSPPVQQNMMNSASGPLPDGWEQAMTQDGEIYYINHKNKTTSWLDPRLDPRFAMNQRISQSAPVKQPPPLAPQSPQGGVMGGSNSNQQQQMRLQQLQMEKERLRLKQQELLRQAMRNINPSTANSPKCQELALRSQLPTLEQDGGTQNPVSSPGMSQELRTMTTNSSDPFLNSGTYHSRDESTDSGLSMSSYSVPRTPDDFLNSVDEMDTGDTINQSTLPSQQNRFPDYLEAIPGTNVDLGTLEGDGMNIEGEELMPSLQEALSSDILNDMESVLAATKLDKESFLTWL

Biological target: YAP (human (endogenous in Huh7, Huh7-H, HCCLM3, HCCLM3-H)) (UniProt P46937)
Experiment: co-IP; cell lysates in IP lysis buffer mixed with specific antibodies at 4°C, beads 2 h, Western blot; normal IgG as control; Huh7 and HCCLM3 cells (with or without ASMTL-AS1 overexpression), Huh7-H and HCCLM3-H cells (with or without ASMTL-AS1 shRNA); antibody used to precipitate not stated

binding: binds
B1: NLK (enzyme, UniProt Q9UBE8 1-527)
chain: MSLCGARANAKMMAAYNGGTSAAAAGHHHHHHHHLPHLPPPHLHHHHHPQHHLHPGSAAAVHPVQQHTSSAAAAAAAAAAAAAMLNPGQQQPYFPSPAPGQAPGPAAAAPAQVQAAAAATVKAHHHQHSHHPQQQLDIEPDRPIGYGAFGVVWSVTDPRDGKRVALKKMPNVFQNLVSCKRVFRELKMLCFFKHDNVLSALDILQPPHIDYFEEIYVVTELMQSDLHKIIVSPQPLSSDHVKVFLYQILRGLKYLHSAGILHRDIKPGNLLVNSNCVLKICDFGLARVEELDESRHMTQEVVTQYYRAPEILMGSRHYSNAIDIWSVGCIFAELLGRRILFQAQSPIQQLDLITDLLGTPSLEAMRTACEGAKAHILRGPHKQPSLPVLYTLSSQATHEAVHLLCRMLVFDPSKRISAKDALAHPYLDEGRLRYHTCMCKCCFSTSTGRVYTSDFEPVTNPKFDDTFEKNLSSVRQVKEIIHQFILEQQKGNRVPLCINPQSAAFKSFISSTVAQPSEMPPSPLVWE
